Taken from: PubChem BioAssay AID504784 (Drosophila RNAi Screening Center, 2011)

- Assay: 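Genome-wide knock-down for genes giving too much or too little stored lipid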 (primary screen)
- System: Drosophila Kc167 embryonic cells
- Reagents: long dsRNA against Drosophila genes, about 250 ng dsRNA per well
- Time to read-out: 4 days
- Treatment: cells fed 400 µM oleic acid bound to BSA
- Read-out: 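Cells imaged and segmented; ratio of lipid droplet area to nuclear area, log-transformed, then normalised as a B-score over the screen; higher means more stored lipid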
- Direction: droplet/nuclear area B-score: higher = more stored lipid (overstorage)
The screen tested about 17,000 reagents; below is a random part of those with a known target gene and a result. 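Each column is one replicate's B-score; the combined score over replicates was not deposited, so single values may mislead.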 A plus sign joins genes that one reagent is predicted to hit.

| gene | amplicon | droplet/nuclear area B-score, replicate 1 | droplet/nuclear area B-score, replicate 2 | droplet/nuclear area B-score, replicate 3 |
| --- | --- | --- | --- | --- |
| Or49a (Odorant receptor 49a) | DRSC07493 | -1.1 | 0.837 | – |
| Cda9 (Chitin deacetylase-like 9) | DRSC06593 | -0.65 | 3.4 | – |
| Sap30 (SIN3-associated polypeptide 30) | DRSC19916 | -0.194 | -0.799 | – |
| pug (pugilist) | DRSC17036 | 1.69 | 0.607 | – |
| CG11060 | DRSC06029 | -0.0764 | -0.11 | – |
| Cox10 (Cytochrome c oxidase assembly factor 10) | DRSC02804 | 0.211 | 1.93 | – |
| mus101 (mutagen-sensitive 101) | DRSC19388 | -1.75 | -1.76 | -0.839 |
| Cyp4d21 (Cytochrome P450 4d21) | DRSC03305 | -0.204 | 0.824 | – |
| Mur82C (Mucin related 82C) | DRSC12011 | 1.17 | 0.852 | – |
| Mur82C (Mucin related 82C) | DRSC12212 | 0.641 | 0.998 | 0.797 |
| CG6356 | DRSC16026 | 1.06 | 0.784 | – |
| lectin-29Ca | DRSC02635 | -0.729 | 0.267 | – |
| nenya | DRSC13838 | 2.21 | 0.0291 | – |
| sage (salivary gland-expressed bHLH) | DRSC14580 | -0.0157 | -0.556 | – |
| CheA29a (Chemosensory protein A 29a) | DRSC21486 | -0.0662 | -1.04 | – |
| Pex11c (Peroxin 11c) | DRSC14677 | 0.686 | -2.69 | – |
| CG31436 | DRSC14661 | 0.95 | 0.0922 | – |
| Pex13 (Peroxin 13) | DRSC06877 | 1.5 | 0.761 | – |
| CG4714 | DRSC06883 | -0.753 | -0.887 | – |
| Octbeta2R (Octopamine beta2 receptor) | DRSC15350 | 0.196 | -1.2 | – |
| Octbeta2R (Octopamine beta2 receptor) | DRSC16165 | 0.461 | 0.137 | – |
| CG33477 | DRSC22934 | -1.49 | 0.416 | – |
| Septin5 (Septin 5) | DRSC06843 | 0.0351 | 0.124 | – |
| CG10702 | DRSC02097 | -0.0367 | 0.274 | – |
| CG13494 | DRSC04139 | 0.33 | -0.755 | – |
| CG42594 | DRSC18053 | -4.34 | -3.12 | – |
| CG42594 | DRSC18408 | 0.0678 | -0.0562 | – |
| CG42594 | DRSC22978 | -1.27 | 0.905 | – |
| l(3)72Dr (lethal (3) 72Dr) | DRSC10478 | -0.22 | 0.244 | – |
| CG13694 | DRSC00363 | 0.317 | -0.926 | – |
| Stlk (Ste20-like kinase) | DRSC22687 | 1.06 | 1.85 | – |
| Sys1 (Sys1 golgi trafficking protein) | DRSC14372 | -1.45 | -0.398 | – |
| CCKLR-17D1 (Cholecystokinin-like receptor at 17D1) | DRSC20011 | 0.012 | 0.324 | – |
| CCKLR-17D1 (Cholecystokinin-like receptor at 17D1) | DRSC20012 | -0.0172 | -0.862 | – |
| Yip1d1 (Yip1 domain-containing 1) | DRSC02166 | 6.28 | -0.832 | – |
| CG31974 | DRSC00522 | 2.04 | -1.03 | – |
| CG34056 | DRSC08374 | -2.2 | 0.486 | – |
| Ns3 (Nucleostemin 3) | DRSC18607 | -0.0162 | 2.69 | -0.802 |
| Fkbp39 (FK506-binding protein 39kD) | DRSC16667 | -0.844 | 0.801 | – |
| l(2)27Cb (retired record) | DRSC02758 | 0.362 | 0.676 | – |
| Sema1b (Semaphorin 1b) | DRSC07550 | 2.5 | -0.0373 | – |
| CG13965 | DRSC02307 | -1.71 | 0.554 | – |
| CG15891 + CG15892 | DRSC18095 | 2.57 | 2.3 | -3.41 |
| CG15891 + CG15892 | DRSC18096 | -0.0678 | 1.01 | – |
| tbrd-3 | DRSC04295 | 1.73 | -1.23 | – |
| CG7601 | DRSC14131 | -2.05 | 6.41 | – |
| CG11307 | DRSC11648 | -0.00265 | -1.04 | -2.18 |
| Abp1 (Actin binding protein 1) | DRSC09693 | -2.85 | -1.64 | – |
| bdwf (bedwarfed) | DRSC15532 | -0.907 | -0.0953 | – |
| CG16995 | DRSC00480 | -1.27 | 0.499 | – |
| por (porcupine) | DRSC20362 | 1.9 | 0.339 | – |
| Atg101 (Autophagy-related 101) | DRSC20020 | -0.926 | -0.463 | – |
| CG12729 | DRSC17884 | -0.15 | 1.13 | – |
| gl (glass) | DRSC16957 | -0.211 | 1.12 | – |
| betaTub60D (beta-Tubulin at 60D) | DRSC04673 | 2.16 | -0.354 | – |
| betaTub60D (beta-Tubulin at 60D) | DRSC22218 | 8.08 | 1.02 | – |
| rho-7 (rhomboid-7) | DRSC07304 | -1.2 | -0.00186 | – |
| Arf6 (ADP ribosylation factor 6) | DRSC05921 | -0.21 | 1.14 | – |
| CCDC151 (Coiled-coil domain containing protein 151) | DRSC10131 | -0.719 | -0.0478 | – |
| GstE2 (Glutathione S transferase E2) | DRSC06672 | 0.773 | – | – |
| CG1578 | DRSC19729 | -0.125 | 0.0891 | 0.956 |
| CG13251 | DRSC11699 | 0.19 | 0.417 | – |
| Ost48 (Oligosaccharyltransferase 48kD subunit) | DRSC18693 | -0.0488 | 0.0417 | -0.0316 |
| CG9192 | DRSC08639 | -0.131 | -0.94 | – |
| Rab32 | DRSC05146 | -0.348 | -0.229 | – |
| Rab32 | DRSC07522 | -1.5 | 0.379 | – |
| Nup37 (Nucleoporin 37kD) | DRSC14419 | -1.26 | -0.148 | – |
| CG12126 | DRSC06103 | 0.111 | 0.866 | – |
| CG42238 | DRSC03180 | 0.462 | 1.36 | – |
| lic (licorne) | DRSC20347 | -0.114 | 0.636 | -1.34 |
| CG12880 | DRSC14568 | -0.495 | 0.688 | – |
| SdhAL (Succinate dehydrogenase, subunit A (flavoprotein)-like) | DRSC10539 | 0.397 | 1.72 | – |
| vrs (versager) | DRSC15832 | -0.139 | 0.0636 | – |
| CG32052 | DRSC10966 | -0.00856 | 1.02 | – |
| CheB42a (Chemosensory protein B 42a) | DRSC22881 | 0.902 | -0.826 | – |
| CG10324 | DRSC14230 | -1.32 | 1.51 | – |
| CG17168 | DRSC20904 | 0.0123 | -2.99 | – |
| CG42527 (retired record) + Hr4 | DRSC18495 | 1.37 | -1.57 | -0.913 |
| CG42527 (retired record) + Hr4 | DRSC22269 | -0.333 | -1.04 | – |
| CG42527 (retired record) + Hr4 | DRSC22677 | -3.29 | -1.66 | – |
| CG42527 (retired record) + Hr4 | DRSC23080 | -1.07 | -0.614 | – |
| CG42527 (retired record) + Hr4 | DRSC23251 | -0.676 | 0.101 | – |
| lolal (lola like) | DRSC06948 | 0.323 | 1.3 | – |

11 entries from above, reduced to “droplet/nuclear area B-score, replicate 1”:
CCKLR-17D1 (Cholecystokinin-like receptor at 17D1) [DRSC20012] = -0.0172
Yip1d1 (Yip1 domain-containing 1) [DRSC02166] = 6.28
CG31974 [DRSC00522] = 2.04
CG34056 [DRSC08374] = -2.2
Ns3 (Nucleostemin 3) [DRSC18607] = -0.0162
Fkbp39 (FK506-binding protein 39kD) [DRSC16667] = -0.844
l(2)27Cb (retired record) [DRSC02758] = 0.362
Sema1b (Semaphorin 1b) [DRSC07550] = 2.5
CG13965 [DRSC02307] = -1.71
CG15891 + CG15892 [DRSC18095] = 2.57
CG15891 + CG15892 [DRSC18096] = -0.0678
